Experimental data as given in patent publication US20080248131A1 (Metaproteomics, LLC, priority 2005, published 2008).
At least one compound was matched to its structure with a doubt left.

System: NF-κB
Experiment: NF-κB DNA binding, TransAM kit, LPS RAW 264.7
Type: cell-based, murine
Conditions: LPS 4 hours

O=c1cc(N2CCOCC2)oc2c(-c3ccccc3)cccc12 [LY294002]
NF-κB binding, in words: modest decrease
